From patent publication US12377173B2, “Compositions comprising hyperpolarized probes for H2O2 sensing and methods of using same” (Duke University, priority 2021, dated 2025)

Assays:
[1] = Investigation of buffer pH on reaction rates (1H NMR); conditions: BBCP 100 mM, 1 equiv H2O2, PBS various pH + 10% D2O

For “1-(4-boronobenzyl)-4-(cyano)pyridin-1-ium [^15N-BBCP]”, the “effect of buffer pH on fragmentation rate” value [1] was “impeded to a greater extent in acidic solutions”, the “effect of buffer pH on oxidation rate” value [1] was “slowed at pH <6.0” and the “in vitro T1 (spin-lattice relaxation time)” value (1 T, hyperpolarized solution) was 340.1 s. The “polarization level at dissolution, compared to thermal scans” value (3 T data, liquid state) was 17.3% and the “SNR at the first timepoint” value (20-mM HP solution, 3T) was 1333.
